What all share (type): cell-based
For one test, the system named is Hs 578T. The experiment in a line: Phenotypic viability assay of GFP reporter cell line. The following applies: Homo sapiens; Hs 578T expressing GFP, 24 h, mean ± SD. On the procedure:
(§1) In this analysis, we used HCT-116, a human colorectal carcinoma cell line; UACC-62, a human melanoma cell line; Hs 578T, a human mammary gland carcinoma cell line, and SF-295, a human glioblastoma cell line. […] The highest concentration of the echinocandins used for the cell viability tests was determined based on the reported maximal plasma concentrations (Cmax) of ANF and RZF measured in humans. A Cmax of approximately 7 μM was measured during a pharmacokinetic study of ANF in patients with candidemia or invasive candidiasis who were treated with a 200 mg loading dose on day 1, followed by a daily 100 mg maintenance dose.[64]
(§2) Human cell lines HCT-116, UACC-62, Hs 578T, and SF-295 were obtained from the Life Sciences Core Facilities of the Nancy & Stephen Grand Israel National Center for Personalized Medicine. […]
(§3) Assay-ready plates were designed using in-house software (CHEMPION, INCPM software development team) and prepared in 384-well Greiner plates (cat. no. 781091) using an Echo 555 Acoustic Liquid Handler (Labcyte). […] Prior to the experiment, cells were trypsinized and counted using a Countess cytometer. […] Images were then analyzed using MetaExpress with a custom protocol (Custom Module Editor), and data were annotated and normalized using Genedata Screener software. […]

Another test deals with SF-295. The experiment in a line: cells. The following applies: Homo sapiens, SF-295, 24 h, read-out: IC50 (cell viability). On the procedure: as §1, §2, §3
The test system of test [1] is HCT-116, UACC-62, Hs 578T, SF-295. The experiment in a line: cells. The following applies: Homo sapiens, 24 h, read-out: IC50 values, range over the four cell lines. Here is the method: as §1, §2, §3

Consider one molecule from paper PMC8991007, “Benzylic Dehydroxylation of Echinocandin Antifungal Drugs Restores Efficacy against Resistance Conferred by Mutated Glucan Synthase” (Journal of the American Chemical Society, 2022).

Structures are written as SMILES.

`CN[C@@H]1C[C@H]2O[C@@](C)([C@@H]1OC)n1c3ccccc3c3c4c(c5c6ccccc6n2c5c31)C(=O)NC4` [Staurosporine]: the IC50 (as a rule, the concentration at which inhibition is half-maximal) in the test on Hs 578T was 800 ± 580 nM; in the test with SF-295, 340 ± 250 nM; in test [1], 340 to 800 nM.
